Measurements reported in PubChem BioAssay AID1508597 (Cure First, 2020).

- Assay: 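Survival screen with siRNA in ovarian cancer cells derived from patients, with or without rucaparib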 (primary screen)
- Cell system: human ovarian carcinoma lines grown from tumours: OCI-P5x (papillary serous) and OCI-C5x (clear cell)
- Reagents: siRNA pool against human genes, 1.25 pmol siRNA per well
- Duration: 72 h or 96 h, depending on the cell culture
- Challenge: rucaparib 20 µM (about IC30) or vehicle, present until read-out
- Detection: 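Luminescent ATP-based viability assay read 72 or 96 h after transfection, depending on culture, given as normalised percent viability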
- Reading the numbers: viability, normalised: higher = more viable cells remaining
- Hit rule: 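a well counts as a hit if its normalised viability is under 80 percent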
- Calls: active = viability under 80%; inactive = viability 80% or more
Shown is an unselected part of about 2,100 reagents tested. 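Calls flag viability under 80% in either arm, not effects specific to rucaparib; the reference for percent is not stated.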 No sequences are given here. Not stated in the record: the 100% reference.

no.	gene symbol	rucaparib or vehicle	cell line	technical replicate	viability, normalised (%)	Outcome
1	DPF2 (double PHD fingers 2)	Rucaparib	OCI-C5x (clear cell)	1	49.9	active
2	DPF2 (double PHD fingers 2)	Rucaparib	OCI-C5x (clear cell)	2	56.6	active
3	DPF2 (double PHD fingers 2)	Rucaparib	OCI-C5x (clear cell)	3	41.6	active
4	DPF2 (double PHD fingers 2)	Rucaparib	OCI-P5x (serous)	1	64	active
5	DPF2 (double PHD fingers 2)	Rucaparib	OCI-P5x (serous)	2	51.9	active
6	DPF2 (double PHD fingers 2)	Rucaparib	OCI-P5x (serous)	3	49.4	active
7	DPF2 (double PHD fingers 2)	Vehicle	OCI-C5x (clear cell)	1	40.3	active
8	DPF2 (double PHD fingers 2)	Vehicle	OCI-C5x (clear cell)	2	48.4	active
9	DPF2 (double PHD fingers 2)	Vehicle	OCI-C5x (clear cell)	3	42.1	active
10	DPF2 (double PHD fingers 2)	Vehicle	OCI-P5x (serous)	1	65	active
11	DPF2 (double PHD fingers 2)	Vehicle	OCI-P5x (serous)	2	66.3	active
12	DPF2 (double PHD fingers 2)	Vehicle	OCI-P5x (serous)	3	61.9	active
13	ROR2 (ROR family WNT receptor 2)	Rucaparib	OCI-C5x (clear cell)	1	47	active
14	ROR2 (ROR family WNT receptor 2)	Rucaparib	OCI-C5x (clear cell)	2	47.5	active
15	ROR2 (ROR family WNT receptor 2)	Rucaparib	OCI-C5x (clear cell)	3	40.6	active
16	ROR2 (ROR family WNT receptor 2)	Rucaparib	OCI-P5x (serous)	1	80.4	inactive
17	ROR2 (ROR family WNT receptor 2)	Rucaparib	OCI-P5x (serous)	2	67.5	active
18	ROR2 (ROR family WNT receptor 2)	Rucaparib	OCI-P5x (serous)	3	83.5	inactive
19	ROR2 (ROR family WNT receptor 2)	Vehicle	OCI-C5x (clear cell)	1	51.8	active
20	ROR2 (ROR family WNT receptor 2)	Vehicle	OCI-C5x (clear cell)	2	54.1	active
21	ROR2 (ROR family WNT receptor 2)	Vehicle	OCI-C5x (clear cell)	3	49.4	active
22	ROR2 (ROR family WNT receptor 2)	Vehicle	OCI-P5x (serous)	1	77.6	active
23	ROR2 (ROR family WNT receptor 2)	Vehicle	OCI-P5x (serous)	2	66.1	active
24	ROR2 (ROR family WNT receptor 2)	Vehicle	OCI-P5x (serous)	3	88.9	inactive
25	XPA (XPA, DNA damage recognition and repair factor)	Rucaparib	OCI-C5x (clear cell)	1	45.6	active
26	XPA (XPA, DNA damage recognition and repair factor)	Rucaparib	OCI-C5x (clear cell)	2	63.4	active
27	XPA (XPA, DNA damage recognition and repair factor)	Rucaparib	OCI-C5x (clear cell)	3	54	active
28	XPA (XPA, DNA damage recognition and repair factor)	Rucaparib	OCI-P5x (serous)	1	78	active
29	XPA (XPA, DNA damage recognition and repair factor)	Rucaparib	OCI-P5x (serous)	2	74.7	active
30	XPA (XPA, DNA damage recognition and repair factor)	Rucaparib	OCI-P5x (serous)	3	76.3	active
31	XPA (XPA, DNA damage recognition and repair factor)	Vehicle	OCI-C5x (clear cell)	1	48.5	active
32	XPA (XPA, DNA damage recognition and repair factor)	Vehicle	OCI-C5x (clear cell)	2	52.5	active
33	XPA (XPA, DNA damage recognition and repair factor)	Vehicle	OCI-C5x (clear cell)	3	43.5	active
34	XPA (XPA, DNA damage recognition and repair factor)	Vehicle	OCI-P5x (serous)	1	58	active
35	XPA (XPA, DNA damage recognition and repair factor)	Vehicle	OCI-P5x (serous)	2	48.3	active
36	XPA (XPA, DNA damage recognition and repair factor)	Vehicle	OCI-P5x (serous)	3	65	active
37	CDCA8 (cell division cycle associated 8)	Rucaparib	OCI-C5x (clear cell)	1	56.7	active
38	CDCA8 (cell division cycle associated 8)	Rucaparib	OCI-C5x (clear cell)	2	56.3	active
39	CDCA8 (cell division cycle associated 8)	Rucaparib	OCI-C5x (clear cell)	3	36.7	active
40	CDCA8 (cell division cycle associated 8)	Rucaparib	OCI-P5x (serous)	1	85.4	inactive
41	CDCA8 (cell division cycle associated 8)	Rucaparib	OCI-P5x (serous)	2	81.6	inactive
42	CDCA8 (cell division cycle associated 8)	Rucaparib	OCI-P5x (serous)	3	67.7	active
43	CDCA8 (cell division cycle associated 8)	Vehicle	OCI-C5x (clear cell)	1	42.4	active
44	CDCA8 (cell division cycle associated 8)	Vehicle	OCI-C5x (clear cell)	2	28.2	active
45	CDCA8 (cell division cycle associated 8)	Vehicle	OCI-C5x (clear cell)	3	38.6	active
46	CDCA8 (cell division cycle associated 8)	Vehicle	OCI-P5x (serous)	1	68.6	active
47	CDCA8 (cell division cycle associated 8)	Vehicle	OCI-P5x (serous)	2	65.1	active
48	CDCA8 (cell division cycle associated 8)	Vehicle	OCI-P5x (serous)	3	73.3	active
49	ATF7IP2 (activating transcription factor 7 interacting protein 2)	Rucaparib	OCI-C5x (clear cell)	1	45	active
50	ATF7IP2 (activating transcription factor 7 interacting protein 2)	Rucaparib	OCI-C5x (clear cell)	2	53.3	active
51	ATF7IP2 (activating transcription factor 7 interacting protein 2)	Rucaparib	OCI-C5x (clear cell)	3	49.5	active
52	ATF7IP2 (activating transcription factor 7 interacting protein 2)	Rucaparib	OCI-P5x (serous)	1	45.6	active
53	ATF7IP2 (activating transcription factor 7 interacting protein 2)	Rucaparib	OCI-P5x (serous)	2	64.7	active
54	ATF7IP2 (activating transcription factor 7 interacting protein 2)	Rucaparib	OCI-P5x (serous)	3	71.7	active
55	ATF7IP2 (activating transcription factor 7 interacting protein 2)	Vehicle	OCI-C5x (clear cell)	1	46.6	active
56	ATF7IP2 (activating transcription factor 7 interacting protein 2)	Vehicle	OCI-C5x (clear cell)	2	62.5	active
57	ATF7IP2 (activating transcription factor 7 interacting protein 2)	Vehicle	OCI-C5x (clear cell)	3	34.6	active
58	ATF7IP2 (activating transcription factor 7 interacting protein 2)	Vehicle	OCI-P5x (serous)	1	54.8	active
59	ATF7IP2 (activating transcription factor 7 interacting protein 2)	Vehicle	OCI-P5x (serous)	2	71.9	active
60	ATF7IP2 (activating transcription factor 7 interacting protein 2)	Vehicle	OCI-P5x (serous)	3	81.2	inactive
61	CLK3 (CDC like kinase 3)	Rucaparib	OCI-C5x (clear cell)	1	74.7	active
62	CLK3 (CDC like kinase 3)	Rucaparib	OCI-C5x (clear cell)	2	57.7	active
63	CLK3 (CDC like kinase 3)	Rucaparib	OCI-C5x (clear cell)	3	83.5	inactive
64	CLK3 (CDC like kinase 3)	Rucaparib	OCI-P5x (serous)	1	104	inactive
65	CLK3 (CDC like kinase 3)	Rucaparib	OCI-P5x (serous)	2	85.7	inactive
66	CLK3 (CDC like kinase 3)	Rucaparib	OCI-P5x (serous)	3	90.4	inactive
67	CLK3 (CDC like kinase 3)	Vehicle	OCI-C5x (clear cell)	1	84.7	inactive
68	CLK3 (CDC like kinase 3)	Vehicle	OCI-C5x (clear cell)	2	91.3	inactive
69	CLK3 (CDC like kinase 3)	Vehicle	OCI-C5x (clear cell)	3	87.8	inactive
70	CLK3 (CDC like kinase 3)	Vehicle	OCI-P5x (serous)	1	85.5	inactive
71	CLK3 (CDC like kinase 3)	Vehicle	OCI-P5x (serous)	2	90.9	inactive
72	CLK3 (CDC like kinase 3)	Vehicle	OCI-P5x (serous)	3	90.9	inactive
73	PRKACG (protein kinase cAMP-activated catalytic subunit gamma)	Rucaparib	OCI-C5x (clear cell)	1	51	active
74	PRKACG (protein kinase cAMP-activated catalytic subunit gamma)	Rucaparib	OCI-C5x (clear cell)	2	48.1	active
75	PRKACG (protein kinase cAMP-activated catalytic subunit gamma)	Rucaparib	OCI-C5x (clear cell)	3	52.7	active
76	PRKACG (protein kinase cAMP-activated catalytic subunit gamma)	Rucaparib	OCI-P5x (serous)	1	143	inactive
77	PRKACG (protein kinase cAMP-activated catalytic subunit gamma)	Rucaparib	OCI-P5x (serous)	2	111	inactive
78	PRKACG (protein kinase cAMP-activated catalytic subunit gamma)	Rucaparib	OCI-P5x (serous)	3	114	inactive
79	PRKACG (protein kinase cAMP-activated catalytic subunit gamma)	Vehicle	OCI-C5x (clear cell)	1	71.8	active
80	PRKACG (protein kinase cAMP-activated catalytic subunit gamma)	Vehicle	OCI-C5x (clear cell)	2	55.9	active
81	PRKACG (protein kinase cAMP-activated catalytic subunit gamma)	Vehicle	OCI-C5x (clear cell)	3	78.8	active
82	PRKACG (protein kinase cAMP-activated catalytic subunit gamma)	Vehicle	OCI-P5x (serous)	1	115	inactive
83	PRKACG (protein kinase cAMP-activated catalytic subunit gamma)	Vehicle	OCI-P5x (serous)	2	119	inactive
84	PRKACG (protein kinase cAMP-activated catalytic subunit gamma)	Vehicle	OCI-P5x (serous)	3	96.1	inactive

Taken from above.
Under “Outcome”, XPA (XPA, DNA damage recognition and repair factor), rucaparib or vehicle Rucaparib, cell line OCI-P5x (serous), technical replicate 2 shows active
Under “viability, normalised (%)”, XPA (XPA, DNA damage recognition and repair factor), rucaparib or vehicle Rucaparib, cell line OCI-C5x (clear cell), technical replicate 1 shows 45.6
Under “viability, normalised (%)”, CLK3 (CDC like kinase 3), rucaparib or vehicle Vehicle, cell line OCI-C5x (clear cell), technical replicate 1 reads 84.7
For “viability, normalised (%)”, ATF7IP2 (activating transcription factor 7 interacting protein 2), rucaparib or vehicle Vehicle, cell line OCI-C5x (clear cell), technical replicate 2 reads 62.5
ATF7IP2 (activating transcription factor 7 interacting protein 2), rucaparib or vehicle Vehicle, cell line OCI-C5x (clear cell), technical replicate 1, Outcome → active
For “viability, normalised (%)”, XPA (XPA, DNA damage recognition and repair factor), rucaparib or vehicle Rucaparib, cell line OCI-C5x (clear cell), technical replicate 2 has 63.4
